# Experimental data as given in PubChem BioAssay AID504467 (National Center for Advancing Translational Sciences (NCATS), 2011).
# Among all 330,000 compounds or so, about 7,700 (2.3%) were called active. Inconclusive results, whose numbers are uncertain, are shown with a selection of clear calls. The call rests on the fitted dose curve; in most records, active means well fitted inhibition curve with a large enough effect; inconclusive means small, poorly fitted or top-dose-only effect, or effect the other way; inactive means flat fitted curve, though single readings scatter. Potencies of inconclusive entries are doubtful fits and often do not repeat.
# Assay: qHTS screen for small molecules that inhibit ELG1-dependent DNA repair in human embryonic kidney (HEK293T) cells expressing luciferase-tagged ELG1; further: nearly all actives have a fitted effect of over 55% in size
# Details: HEK293T ELG1-luciferase reporter, luminescence, 16 h, DNA damage induced by 5-fluorouridine; series mostly up to 46.1 µM
# Method in brief: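 Quantitative HTS, concentration-response format. 2,000 cells/well co-treated with 5-fluorouridine and compound, 16 hr in 5% CO2 at 37 °C; ONE-Glo luminescence read after 30 min.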
# Potency means the concentration at half of the fitted maximal effect.
row,Compound,Potency
1,COc1ccc(S(=O)(=O)N2CCN(S(=O)(=O)c3ccc4c(c3)OCCO4)CC2)cc1,inactive
2,Cc1ccc2nc(-c3ccc(NC(=O)CN4CCN(c5ccccn5)CC4)cc3)sc2c1,"inconclusive: 6.51 µM [inhibitor, single point]"
3,CC(NC(=O)COC(=O)/C(=C/c1cccs1)c1cccs1)c1ccccc1 (stereo unspecified),"inconclusive: 29.1 µM [inhibitor, single point]"
4,Cc1ccc(NC(=O)c2cnn(-c3ccccc3)c2C)cc1C,"inconclusive: 0.366 µM [activator, full curve]"
5,CC(C)c1ccc(NC(=O)C2CCCN2S(=O)(=O)c2ccccc2F)cc1 (stereo unspecified),"inconclusive: 23.1 µM [activator, partial curve, poor fit]"
6,Cc1nnc(Nc2ccc(S(N)(=O)=O)cc2)c2ccccc12,inactive
7,Cc1ccc(/C=N/NC(=O)c2c(-c3ccccc3)noc2C)c(O)c1,"inconclusive: 32.6 µM [inhibitor, single point]"
8,CC1CCCCN1Cc1nc2ccccc2c(=O)[nH]1 (stereo unspecified),"inconclusive: 23.1 µM [activator, partial curve]"
9,Cn1nnnc1Sc1ncnc2scc(-c3ccc(Cl)cc3)c12,active: 16.4 µM
10,Cc1ccc(Cn2c(Sc3nnc(C)s3)nc3c2c(=O)[nH]c(=O)n3C)cc1,inactive
11,COc1ccc(-n2c(C)cc(C(=O)CSc3nnc(-c4cccs4)o3)c2C)cc1,active: 6.51 µM
12,C[C@H](CO)N1C[C@H](C)[C@@H](CN(C)C(=O)Nc2ccc3c(c2)OCO3)Oc2ccc(NC(=O)C3CCCCC3)cc2C1=O,inactive
13,COc1ccccc1NC(=O)N1CCN(c2ccccc2F)CC1,"inconclusive: 29.1 µM [activator, partial curve, poor fit]"
14,CCOC(=O)N1CCc2c(sc3nc(SC(C)C)n(N)c(=O)c23)C1,"inconclusive: 29.1 µM [inhibitor, single point]"
15,CSc1ccccc1OCc1cc(C(=O)N(C)Cc2ccc(C)o2)no1,"inconclusive: 10.3 µM [activator, partial curve]"
16,Cc1ccc(C)c(NC(=O)CN(C)C(=O)c2cc(C3CC3)nn2-c2ccccc2)c1,"inconclusive: 25.9 µM [inhibitor, single point]"
17,CCOC(=O)C(C)Sc1ncc(-c2ccccc2)cn1 (stereo unspecified),"inconclusive: 16.4 µM [activator, partial curve, poor fit]"
18,COC(=O)c1cc(=O)n(Cc2ccco2)c(=Nc2ccc(F)c(Cl)c2)s1,"inconclusive: 18.4 µM [inhibitor, partial curve]"
19,CSc1ccccc1C(=O)Nc1nccs1,"inconclusive: 2.06 µM [inhibitor, partial curve, poor fit]"
20,O=C(O)c1cccc(NC(=O)c2ccc3c(c2)C(=O)N(C2CCCCC2)C3=O)c1,inactive
21,Nc1c(-c2ccccc2)cnn1-c1cccc(Cl)c1,"inconclusive: 8.2 µM [activator, partial curve]"
22,CCN1CCN(Cc2ccc(NC(=O)Nc3ccc(OC)cc3)cc2)CC1,"inconclusive: 18.4 µM [activator, partial curve]"
23,O=C(CN1CCC(NC(=O)c2cccc(F)c2)CC1)Nc1ccc(Br)cc1,"inconclusive: 23.1 µM [inhibitor, partial curve]"

row,Compound,Potency
1,CC(C)(C)CN1CCNC(=O)C1CC(=O)NCCN1CCCc2ccccc21 (stereo unspecified),inactive
2,COc1ccc(N2C(=O)Cc3ccccc3C2=O)cc1,inactive
3,COc1ccc(C(=O)c2ccc(OC)cc2O)c(O)c1,"inconclusive: 13 µM [activator, partial curve]"
4,Cn1nccc1C(=O)OCC(=O)Nc1cccc(Cl)c1,inactive
5,CCn1c(SCC(=O)N/N=C/C=C\c2ccco2)nc2ccccc21,inactive
6,CCCCCC#CCN1CCN(C23CC4CC(CC(C4)C2)C3)CC1,inactive
7,COc1cccc(N2C(C(C)=O)=NN(c3ccccc3)C2c2ccc(N3CCOCC3)cc2)c1 (stereo unspecified),"inconclusive: 16.4 µM [activator, partial curve]"
8,Cc1cccc(C(C)C)c1NC(=O)c1cc2ccccc2o1,inactive
9,CCN(CC)S(=O)(=O)c1ccc(C(=O)NCc2ccc3[nH]c4c(c3c2)CCCC4)cc1,"inconclusive: 13 µM [inhibitor, partial curve, poor fit]"
10,CC1CC1C(=O)Nc1nc2ccc(S(C)(=O)=O)cc2s1 (stereo unspecified),inactive
11,CC(C)(C)NC(=S)N/N=C/c1c(Cl)cccc1Cl,"inconclusive: 6.51 µM [inhibitor, single point]"
12,CCc1ccccc1NC(=O)CC(c1ccc(OC)cc1)n1cccc1 (stereo unspecified),"inconclusive: 25.9 µM [inhibitor, single point]"
13,c1ccc(-c2cc(N3CCCCCC3)n[nH]2)cc1,"inconclusive: 11.2 µM [activator, partial curve, poor fit]"
14,O=C(c1ccc(-c2ccc(Cl)cc2)o1)N1CCN(S(=O)(=O)c2cccs2)CC1,"inconclusive: 35.5 µM [inhibitor, single point]"
15,COc1cccc2sc(=NC(=O)CS(=O)(=O)c3ccc(Cl)cc3)n(C)c12,inactive
16,Cc1cc(Cl)c2oc(C(=O)NCCC3CCCCO3)c(C)c2c1 (stereo unspecified),"inconclusive: 14.6 µM [activator, partial curve]"
17,CCCCc1ccc(NS(=O)(=O)c2cccc(C(=O)N3CCCN(C)CC3)c2)cc1,inactive
18,Cc1ccc(Cn2cc(/C=N/NC(=O)Cc3nnc(NC(=O)c4ccc(C)cc4)s3)c3ccccc32)cc1,inactive
19,COc1cc(-c2nnc(COC(=O)c3nn(CC(C)C)c(=O)c4ccccc34)o2)cc(OC)c1OC,inactive
20,Cc1nc(-c2ccccn2)nc(N(C)c2ccccc2)c1Cl,"inconclusive: 18.3 µM [inhibitor, partial curve]"
21,COc1ccc(/C=C2\CCc3ccccc3C2=O)cc1OC,"inconclusive: 20.6 µM [activator, partial curve]"
22,Cc1cc(CNC(=O)C2CCC(=O)N(Cc3ccccc3F)C2)on1 (stereo unspecified),inactive
23,CN(C)c1ccc(CNC(=O)CCNS(=O)(=O)c2cc(Br)cnc2N)cc1,"inconclusive: 5.8 µM [inhibitor, partial curve]"

# Looked up above.
# Value for Cc1ccc(NC(=O)c2cnn(-c3ccccc3)c2C)cc1C under Potency: inconclusive: 0.366 µM [activator, full curve]
# Value for Cn1nnnc1Sc1ncnc2scc(-c3ccc(Cl)cc3)c12 under Potency: active: 16.4 µM
# Value for COC(=O)c1cc(=O)n(Cc2ccco2)c(=Nc2ccc(F)c(Cl)c2)s1 under Potency: inconclusive: 18.4 µM [inhibitor, partial curve]
